{
  "source": "patent US20210221768A1",
  "about": "“CRYSTALLINE FORMS OF 1-(ACYLOXY)-ALKYL CARBAMATE DRUG CONJUGATES OF NAPROXEN AND PREGABALIN” (Xgene Pharmaceutical Inc., priority 2018, published 2021)",
  "key": {"[1]": {"conditions": "preclinical toxicology and safety pharmacology studies"}, "[2]": {"conditions": "phase I clinical studies in healthy volunteers"}},
  "note": "Where two headings read alike, the source gives them in different places.",
  "data": [
    {"compound": "COc1ccc2cc([C@H](C)C(=O)O[C@@H](C)OC(=O)NC[C@H](CC(=O)O)CC(C)C)ccc2c1", "note": "[Formula I, (S)-3-((((R)-1-((S)-2-(6-methoxynaphthalen-2-yl)propanoyloxy)ethoxy)carbonylamino)methyl)-5-methylhexanoic acid]", "values": [
      {"measurement": "pharmacological effects beyond those expected from exposure to naproxen and pregabalin", "setting": "[1]", "result": "does not cause any pharmacological effects beyond those expected from exposure to naproxen and pregabalin"},
      {"measurement": "pharmacological effects beyond those expected from exposure to naproxen and pregabalin", "setting": "[2]", "result": "does not cause any pharmacological effects beyond those expected from exposure to naproxen and pregabalin"}
    ]}
  ]
}
